Data taken from patent US20140134634A1.
Results are given in words; binding and its absence hold for the method and conditions named. Binding seen in cells or lysates may run through a third protein. Some entries that bind do so weakly or less than the wild type. For part of these data: Where a sequence is shown, tags or fusion partners need not be part of it.

Protein sequences, listed by entry. Tags and fused reporters are not part of them.
UniProt Q60857: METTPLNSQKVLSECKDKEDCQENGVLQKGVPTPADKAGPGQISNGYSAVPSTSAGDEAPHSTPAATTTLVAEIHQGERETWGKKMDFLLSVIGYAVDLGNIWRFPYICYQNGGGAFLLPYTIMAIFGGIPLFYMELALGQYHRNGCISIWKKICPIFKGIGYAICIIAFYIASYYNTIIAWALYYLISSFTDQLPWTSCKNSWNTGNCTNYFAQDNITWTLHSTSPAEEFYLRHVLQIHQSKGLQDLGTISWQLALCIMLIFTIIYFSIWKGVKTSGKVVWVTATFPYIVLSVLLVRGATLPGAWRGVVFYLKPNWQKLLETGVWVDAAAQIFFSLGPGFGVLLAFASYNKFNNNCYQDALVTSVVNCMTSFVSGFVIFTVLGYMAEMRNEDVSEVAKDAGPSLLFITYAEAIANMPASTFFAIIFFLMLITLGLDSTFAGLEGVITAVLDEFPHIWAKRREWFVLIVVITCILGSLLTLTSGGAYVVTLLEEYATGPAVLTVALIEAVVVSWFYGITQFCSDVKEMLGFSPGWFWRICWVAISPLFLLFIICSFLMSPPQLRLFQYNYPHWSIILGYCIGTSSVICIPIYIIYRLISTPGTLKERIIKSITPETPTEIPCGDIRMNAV
UniProt P31652: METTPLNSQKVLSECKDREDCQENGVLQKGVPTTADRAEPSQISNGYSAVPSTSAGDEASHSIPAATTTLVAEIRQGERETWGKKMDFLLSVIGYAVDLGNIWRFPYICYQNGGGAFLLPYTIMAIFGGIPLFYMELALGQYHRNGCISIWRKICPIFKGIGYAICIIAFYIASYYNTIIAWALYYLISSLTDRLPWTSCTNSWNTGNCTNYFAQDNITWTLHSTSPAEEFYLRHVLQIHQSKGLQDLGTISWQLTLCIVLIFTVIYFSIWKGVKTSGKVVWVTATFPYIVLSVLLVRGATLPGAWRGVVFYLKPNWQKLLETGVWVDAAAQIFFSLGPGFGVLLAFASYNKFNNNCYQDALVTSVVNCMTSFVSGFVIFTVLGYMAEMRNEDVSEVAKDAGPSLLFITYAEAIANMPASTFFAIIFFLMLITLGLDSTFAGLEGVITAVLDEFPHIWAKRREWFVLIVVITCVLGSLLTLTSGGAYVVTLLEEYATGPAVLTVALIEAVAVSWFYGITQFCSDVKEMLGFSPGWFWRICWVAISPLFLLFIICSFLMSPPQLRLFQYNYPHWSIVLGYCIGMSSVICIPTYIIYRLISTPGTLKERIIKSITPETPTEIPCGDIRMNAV

Tests used:
[1] = target: serotonin transporter protein (endogenous, mouse brain homogenate) (mouse) (UniProt Q60857); test: co-immunoprecipitation from mouse brain homogenate with anti-SERT antibody and dynabeads protein A, Western blot with anti-MAGE-D1
[2] = target: serotonin transporter protein (endogenous, mouse brain homogenate) (mouse) (UniProt Q60857); test: conclusion of the co-immunoprecipitation experiments of Example 2 (mouse brain homogenate)
[3] = target: serotonin transporter protein (endogenous, mouse brain homogenate) (mouse) (UniProt Q60857); test: co-immunoprecipitation from mouse brain homogenate, Western blot (FIG. 5)
[4] = target: serotonin transporter protein (rat, constitutively expressed in Chinese hamster ovary cells) (rat) (UniProt P31652); test: co-immunoprecipitation from homogenate of CHO cells expressing rat SERT and HA-tagged MAGE-D1, IP with anti-SERT, Western blot with anti-HA (FIG. 6a)
[5] = target: serotonin transporter protein (rat, constitutively expressed in Chinese hamster ovary cells) (rat) (UniProt P31652); test: reciprocal co-immunoprecipitation from CHO cell homogenate, Western blot (FIGS. 6(a) and 6(b))
[6] = target: serotonin transporter protein (rat, constitutively expressed in Chinese hamster ovary cells) (rat) (UniProt P31652); test: co-immunoprecipitation from homogenate of CHO cells expressing rat SERT and HA-tagged MAGE-D1, IP with anti-HA, Western blot with anti-SERT (FIG. 6b)
[7] = target: serotonin transporter protein (rat, constitutively expressed in Chinese hamster ovary cells) (rat) (UniProt P31652); test: conclusion of the co-immunoprecipitation experiments of Example 2 (CHO cell homogenate)
[8] = target: serotonin transporter protein (rat, constitutively expressed in Chinese hamster ovary cells) (rat) (UniProt P31652); test: co-immunoprecipitation from homogenate of CHO cells expressing rat SERT and HA-tagged MAGE-D1-NHD, IP with anti-HA, Western blot with anti-SERT
[9] = target: serotonin transporter protein (rat, constitutively expressed in Chinese hamster ovary cells) (rat) (UniProt P31652); test: co-immunoprecipitation with anti-HA, Western blot with anti-SERT (FIG. 7(b))

Measured: binding

B1: MAGE-D1 protein (endogenous, mouse brain homogenate) (protein, UniProt Q9QYH6 1-775, looked up)
chain: MAQKPDGGAGLRGFQAEASVEDSALLVQTLMEAIQISEAPPTSQATAAASGPNASPQSSQPPTANEKADTEVSAAAARPKTGFKAQNATTKGPNDYSQARNAKEMPKNQSKAAFKSQNGTPKGPHAASDFSQAAPTGKSAKKSEMAFKGQNSTKAGPGTTYNFPQSPSANEMTNNQPKTAKAWNDTTKVPGADAQTQNVNQAKMADVGTSAGISEADGAAAQTSADGSQTQNVESRTIIRGKRTRKVNNLNVEENNSGDQRRASLASGNWRSAPVPVTTQQNPPGAPPNVVWQTPLAWQNPSGWQNQTARQTPPAARQSPPARQTPSAWQNPVAWQNPVIWPNPVIWQNPVIWPNPIVWPGPIVWPNPMAWQSTPGWQSPPSWQAPPSWQSPQDWQGPPDWQVPPDWSMPPDWSFPSDWPFPPDWIPADWPIPPDWQNLRPSPNLRSSSNSRASQNQGPPQPRDVALLQERANKLVKYLMLKDYTKVPIKRSEMLRDIIREYTDVYPEIIERACFVLEKKFGIQLKEIDKEEHLYILISTPESLAGILGTTKDTPKLGLLLVILGIIFMNGNRATEAVLWEALRKMGLRPGVRHPLLGDLRKLLTYEFVKQKYLDYRRVPNSNPPEYEFLWGLRSYHETSKMKVLRFIAEVQKRDPRDWTAQFMEAADEALDALDAAAAEAEARAEARNRMGIGDEAVSGPWSWDDIEFELLTWDEEGDFGDPWSRIPFTFWARYHQNARSRFPQAFTGPIIGPSGTATANFAANFGAIGFFWVE
binds: [1] | [2] | [3]

B2: HA-tagged MAGE-D1 protein (full length, mouse) (protein)
chain: MAQKPDGGAGLRGFQAEASVEDSALLVQTLMEAIQISEAPPTSQATAAASGPNASPQSSQPPTANEKADTEVSAAAARPKTGFKAQNATTKGPNDYSQARNAKEMPKNQSKAAFKSQNGTPKGPHAASDFSQAAPTGKSAKKSEMAFKGQNSTKAGPGTTYNFPQSPSANEMTNNQPKTAKAWNDTTKVPGADAQTQNVNQAKMADVGTSAGISEADGAAAQTSADGSQTQNVESRTIIRGKRTRKVNNLNVEENNSGDQRRASLASGNWRSAPVPVTTQQNPPGAPPNVVWQTPLAWQNPSGWQNQTARQTPPAARQSPPARQTPSAWQNPVAWQNPVIWPNPVIWQNPVIWPNPIVWPGPIVWPNPMAWQSTPGWQSPPSWQAPPSWQSPQDWQGPPDWQVPPDWSMPPDWSFPSDWPFPPDWIPADWPIPPDWQNLRPSPNLRSSSNSRASQNQGPPQPRDVALLQERANKLVKYLMLKDYTKVPIKRSEMLRDIIREYTDVYPEIIERACFVLEKKFGIQLKEIDKEEHLYILISTPESLAGILGTTKDTPKLGLLLVILGIIFMNGNRATEAVLWEALRKMGLRPGVRHPLLGDLRKLLTYEFVKQKYLDYRRVPNSNPPEYEFLWGLRSYHETSKMKVLRFIAEVQKRDPRDWTAQFMEAADEALDALDAAAAEAEARAEARNRMGIGDEAVSGPWSWDDIEFELLTWDEEGDFGDPWSRIPFTFWARYHQNARSRFPQAFTGPIIGPSGTATANFAANFGAIGFFWVEYPYDVPDYA
binds: [4] | [5] | [6] | [7]

B3: HA-tagged MAGE-D1-NHD protein (protein, mouse)
chain: LQERANKLVKYLMLKDYTKVPIKRSEMLRDIIREYTDVYPEIIERACFVLEKKFGIQLKEIDKEEHLYILISTPESLAGILGTTKDTPKLGLLLVILGIIFMNGNRATEAVLWEALRKMGLRPGVRHPLLGDLRKLLTYEFVKQKYLDYRRVPNSNPPEYEFLWGLRSYHETSKMKVLRFIAEVQKRDPRDWTAQFMEAYPYDVPDYA
binds: [8] | [9]
